In paper doi:10.1101/2023.10.23.563594 (bioRxiv, 2023):
These are yes or no findings as the source states them, for the method shown. Binding seen in cells or lysates may run through a third protein. One block for each binder: values may come before it.

Target: T1, RYBP Q60H, co-expressed with RING1B and PCGF4 (human) (UniProt Q8N488)
T1 sequence: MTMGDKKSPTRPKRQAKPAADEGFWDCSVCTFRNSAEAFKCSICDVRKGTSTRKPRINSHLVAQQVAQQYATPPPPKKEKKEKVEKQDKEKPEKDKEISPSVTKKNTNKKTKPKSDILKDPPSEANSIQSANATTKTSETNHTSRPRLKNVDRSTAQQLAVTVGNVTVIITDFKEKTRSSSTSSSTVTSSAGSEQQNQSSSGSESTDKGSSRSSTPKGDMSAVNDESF
Test: pull-down

binding: no binding
B1: E3 ubiquitin ligase subunit RING1B, full-length, co-expressed in the vPRC1.4 complex (natural protein)
chain: MSQAVQTNGTQPLSKTWELSLYELQRTPQEAITDGLEIVVSPRSLHSELMCPICLDMLKNTMTTKECLHRFCADCIITALRSGNKECPTCRKKLVSKRSLRPDPNFDALISKIYPSRDEYEAHQERVLARINKHNNQQALSHSIEEGLKIQAMNRLQRGKKQQIENGSGAEDNGDSSHCSNASTHSNQEAGPSNKRTKTSDDSGLELDNNNAAMAIDPVMDGASEIELVFRPHPTLMEKDDSAQTRYIKTSGNATVDHLSKYLAVRLALEELRSKGESNQMNLDTASEKQYTIYIATASGQFTVLNGSFSLELVSEKYWKVNKPMELYYAPTKEHK

binding: no binding
B2: Polycomb group ring-finger subunit PCGF4, full-length, co-expressed in the vPRC1.4 complex (natural protein)
chain: MHRTTRIKITELNPHLMCVLCGGYFIDATTIIECLHSFCKTCIVRYLETSKYCPICDVQVHKTRPLLNIRSDKTLQDIVYKLVPGLFKNEMKRRRDFYAAHPSADAANGSNEDRGEVADEDKRIITDDEIISLSIEFFDQNRLDRKVNKDKEKSKEEVNDKRYLRCPAAMTVMHLRKFLRSKMDIPNTFQIDVMYEEEPLKDYYTLMDIAYIYTWRRNGPLPLKYRVRPTCKRMKISHQRDGLTNAGELESDSGSDKANSPAGGIPSTSSCLPSPSTPVQSPHPQFPHISSTMNGTSNSPSGNHQSSFANRPRKSSVNGSSATSSG
